According to patent US8828966B2, “Method for treatment of macular degeneration by modulating P2Y12 or P2X7 receptors” (priority 2006, dated 2014):

Tests used:
ARPE-19 cells = experiment: Lysosomal pH (pHL) with LysoSensor Yellow/Blue, high through-put screen; type: cell-based; conditions: Homo sapiens, concentration dependent rise in pH, FIG. 2B
Protocol: Lysosensor Yellow/Blue co-localized with the Lysotracker Red dye in small vesicles, with a distribution consistent with lysosomal origin. Measurements of pHL were performed using a high throughput screening (HTS) protocol to maximize output and minimize variation using ARPE-19 cells in 96 well plates. […] Loading for 5 min. at 23° C. with 5 μM lysosensor, followed by 15 min. for internalization, produced stable and reproducible results.
The ratio was converted to pH by calibrating with KCl buffered to pH 4.0-6.0 in the presence of monensin and nigericin. Calibration indicated a baseline pH of 4.4 to 4.5, supporting lysosomal localization. […] NH4Cl decreased the ratios slightly at 380 nm. Nevertheless, absent the addition of the dye, none of these compounds, or any others, altered the fluorescent signal at 340 or 380 nm, showing a specificity of the measured change to pHL. […] This quantification is necessary to predict the potential effectiveness of acidifying drugs to restore lysosomal enzyme activity.
Extensive trials determined that the optimal response is obtained with 5 minute dye loading and 15 minute post-incubation. […] All reagents were from Sigma Chemical Corp. unless otherwise indicated.
In general, each condition below used 3-12 independent wells per plate, in 3-6 separate plates. […] Significance was determined with a one-way ANOVA and Tukey post test. […]

isolated mice RPE cells = experiment: Lysosomal pH (340/380 nm ratio) in freshly isolated mouse RPE cells; type: cell-based; conditions: tamoxifen 30 μM

CC/C(=C(\c1ccccc1)c1ccc(OCCN(C)C)cc1)c1ccccc1 [tamoxifen]
EC50 (ARPE-19 cells): 22 µM | 340/380 nm ratio (index of lysosomal pH) (isolated mice RPE cells): increased the 340/380 nm ratio
